The assay deals with Recombinant Tenascin-C (EMD Millipore) (UniProt P24821). The experiment in a line: co-IP; recombinant TNC (methods: 1 µg in 1 mL; legend: 0.1 mg/mL) and several concentrations of recombinant Wnt-2 in NDLB (50 mM Tris-HCl pH 7.4, 300 mM NaCl, 5 mM EDTA, 1% Triton X-100), TNC antibody overnight at 4 °C, Protein A/G magnetic beads, 5 washes; immunoblot for Wnt-2; both purified. A general note: Immunoblotting shows a protein as a band on a membrane.

Protein sequences, listed by entry. Tags and fused reporters are not part of them. Residues count along the entry.
UniProt P24821, residues 23-2201: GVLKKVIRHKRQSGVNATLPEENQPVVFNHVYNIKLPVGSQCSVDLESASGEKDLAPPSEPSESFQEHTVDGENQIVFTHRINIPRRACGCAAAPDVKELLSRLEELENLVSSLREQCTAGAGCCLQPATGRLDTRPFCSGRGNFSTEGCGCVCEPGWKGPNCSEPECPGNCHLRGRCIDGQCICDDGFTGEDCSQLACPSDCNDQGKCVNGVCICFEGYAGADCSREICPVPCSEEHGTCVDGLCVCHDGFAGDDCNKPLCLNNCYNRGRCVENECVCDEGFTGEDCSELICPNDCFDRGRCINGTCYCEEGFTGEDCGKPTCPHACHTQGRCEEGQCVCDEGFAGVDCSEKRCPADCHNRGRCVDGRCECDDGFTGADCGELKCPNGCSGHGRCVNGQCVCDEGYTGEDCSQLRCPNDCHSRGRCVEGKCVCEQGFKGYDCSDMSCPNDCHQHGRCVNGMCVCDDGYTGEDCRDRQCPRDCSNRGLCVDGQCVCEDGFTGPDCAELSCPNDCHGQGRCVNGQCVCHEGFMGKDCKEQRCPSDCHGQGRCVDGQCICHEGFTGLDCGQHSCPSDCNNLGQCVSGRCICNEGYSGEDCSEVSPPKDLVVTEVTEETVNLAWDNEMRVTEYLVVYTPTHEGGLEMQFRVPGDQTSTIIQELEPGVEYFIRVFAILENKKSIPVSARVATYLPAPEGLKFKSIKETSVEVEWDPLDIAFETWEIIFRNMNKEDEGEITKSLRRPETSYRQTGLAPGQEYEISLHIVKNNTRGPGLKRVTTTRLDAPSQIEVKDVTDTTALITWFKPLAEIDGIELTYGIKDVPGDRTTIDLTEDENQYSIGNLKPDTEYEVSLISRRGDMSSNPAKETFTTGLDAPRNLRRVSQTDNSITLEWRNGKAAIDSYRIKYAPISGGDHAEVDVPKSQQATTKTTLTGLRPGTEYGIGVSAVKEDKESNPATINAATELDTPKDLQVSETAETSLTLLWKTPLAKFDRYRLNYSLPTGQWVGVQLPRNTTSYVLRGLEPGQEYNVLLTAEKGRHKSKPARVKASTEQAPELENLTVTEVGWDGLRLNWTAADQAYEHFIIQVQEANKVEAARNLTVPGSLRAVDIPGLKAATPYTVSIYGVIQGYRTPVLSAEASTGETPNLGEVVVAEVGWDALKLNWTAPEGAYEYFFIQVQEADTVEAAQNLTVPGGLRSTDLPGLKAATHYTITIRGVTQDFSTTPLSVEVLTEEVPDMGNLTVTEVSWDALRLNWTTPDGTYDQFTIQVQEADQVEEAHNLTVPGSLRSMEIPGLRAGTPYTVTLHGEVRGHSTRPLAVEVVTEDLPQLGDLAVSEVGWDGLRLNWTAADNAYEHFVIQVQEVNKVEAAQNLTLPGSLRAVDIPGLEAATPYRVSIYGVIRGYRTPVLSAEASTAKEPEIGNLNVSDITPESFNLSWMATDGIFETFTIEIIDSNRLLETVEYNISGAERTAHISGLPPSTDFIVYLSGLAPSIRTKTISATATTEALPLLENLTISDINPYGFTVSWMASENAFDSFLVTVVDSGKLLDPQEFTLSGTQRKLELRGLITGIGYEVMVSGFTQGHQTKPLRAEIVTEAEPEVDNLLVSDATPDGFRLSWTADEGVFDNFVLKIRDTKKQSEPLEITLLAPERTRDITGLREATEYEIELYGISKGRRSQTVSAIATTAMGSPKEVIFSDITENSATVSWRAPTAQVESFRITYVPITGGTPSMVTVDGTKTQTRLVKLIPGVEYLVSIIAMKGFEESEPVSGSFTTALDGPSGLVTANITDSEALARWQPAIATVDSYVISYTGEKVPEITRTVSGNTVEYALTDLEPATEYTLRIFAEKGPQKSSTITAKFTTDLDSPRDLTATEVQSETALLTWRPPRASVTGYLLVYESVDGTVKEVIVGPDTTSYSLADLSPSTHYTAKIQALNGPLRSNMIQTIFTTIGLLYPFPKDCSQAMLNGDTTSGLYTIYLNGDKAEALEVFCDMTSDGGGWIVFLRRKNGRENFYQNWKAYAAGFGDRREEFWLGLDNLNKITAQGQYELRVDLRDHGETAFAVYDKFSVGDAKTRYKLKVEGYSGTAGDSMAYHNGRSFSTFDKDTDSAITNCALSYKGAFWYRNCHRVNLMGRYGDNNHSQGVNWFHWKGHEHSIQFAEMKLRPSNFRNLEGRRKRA

No constants are given. Whether binding was seen depends on the method and setting. Some results given as binding are weak or reduced against the parent protein; the word gives no strength.

B1: Recombinant Wnt-2 (Biomatik) (ligand, UniProt P09544 26-360)
chain: SWWYMRATGGSSRVMCDNVPGLVSSQRQLCHRHPDVMRAISQGVAEWTAECQHQFRQHRWNCNTLDRDHSLFGRVLLRSSRESAFVYAISSAGVVFAITRACSQGEVKSCSCDPKKMGSAKDSKGIFDWGGCSDNIDYGIKFARAFVDAKERKGKDARALMNLHNNRAGRKAVKRFLKQECKCHGVSGSCTLRTCWLAMADFRKTGDYLWRKYNGAIQVVMNQDGTGFTVANERFKKPTKNDLVYFENSPDYCIRDREAGSLGTAGRVCNLTSRGMDSCEVMCCGRGYDTSHVTRMTKCGCKFHWCCAVRCQDCLEALDVHTCKAPKNADWTTAT
As for B1, the binding entry was “binds”.

Source of the values: publication PMC11843548.
